Test results taken from PubChem BioAssay AID2685 (National Center for Advancing Translational Sciences (NCATS), 2010).
The other results are listed elsewhere or left out. These are further read-outs of the screen, such as a control signal, another cell line or another target. No call is given for them. The list favours compounds with an active or inconclusive main result. Words in brackets tell the shape of the fitted curve; partial curves, single points and poor fits give uncertain potencies.

Experiment: qHTS Assay for Lipid Storage Modulators in Drosophila S3 Cells;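 as to cell number change: cells counted by Cell Tracker Red CMTPX staining in the red channel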
Conditions: BODIPY lipid droplet fluorescence, 18-24 h; for cell number change: measured here: cell count max response, cells fed with added oleic acid
Summary of the method: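 Laser-scanning cytometry quantifies lipid droplet accumulation (500–530 nm total intensity; droplet/cell object ratio) in oleic acid-fed (400 uM added) Drosophila S3 cells treated with a concentration series. 20 uM Triacsin C defined 100% inhibition.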

[1] = measured here: lipid fluorescence (Fed channel) AC50, cells fed with added oleic acid
[2] = measured here: cell number channel AC50, cells fed with added oleic acid

## COc1ccc(NC(=O)c2ccco2)c(NC(=O)Cc2cccs2)c1
  cell number change: 74.9%
[1]
  AC50: 0.58 µM [rising, single point]

## COc1ccccc1C(=O)NCCC(=O)Nc1ncccc1C
  cell number change: 4.32%

## CCCC(C(=O)NCc1ccco1)N(C(=O)CNS(=O)(=O)c1ccccc1)C1CCCC1 (stereo not drawn)
  cell number change: 52.1%
[2]
  AC50: 9.2 µM [rising, partial curve, poor fit]

## NS(=O)(=O)c1ccc(NC(=O)CN2CCCCC2)cc1
  cell number change: -48.5%
[2]
  AC50: 5.8 µM [falling, full curve]
[1]
  AC50: 4.11 µM [falling, single point]

## CC1CCC(NC(=O)CCNS(=O)(=O)c2ccccc2)CC1 (stereo not drawn)
  cell number change: 31.4%

## CCN(CC)S(=O)(=O)c1ccc(C(=O)NCc2ccc3c(c2)cc(C)n3C)cc1
  cell number change: 32.6%
[2]
  AC50: 11.6 µM [rising, partial curve]

## CCc1ccccc1NC(=O)C1=CC(c2cccs2)=NS(=O)(=O)N1C
  cell number change: -39.2%
[2]
  AC50: 7.31 µM [falling, partial curve]
[1]
  AC50: 0.82 µM [falling, full curve]

## Cc1cccc(Oc2ccc3c(c2)cc(C(=O)O)n3C)c1
  cell number change: 3.15%
[1]
  AC50: 11.6 µM [rising, partial curve]

## COc1ccc(-c2cn(-c3ccc(Br)cc3)c3[n+]2CCS3)cc1
  cell number change: 7.3%
[1]
  AC50: 5.8 µM [rising, full curve]

## CN(C)c1ccc(/C=C(\NC(=O)c2ccccc2)C(=O)NCCCN2CCOCC2)cc1
  cell number change: 15%
[1]
  AC50: 29.1 µM [rising, single point]

## Cc1nc(CN2CCC(c3ccccc3)CC2)cc(=O)[nH]1
[2]
  AC50: 3.26 µM [falling, single point]
[1]
  AC50: 4.11 µM [falling, single point]

## Oc1ccccc1/C=N/NC(=S)NC1CC2C=CC1C2 (stereo not drawn)
  cell number change: -51%
[2]
  AC50: 25.9 µM [falling, single point]
[1]
  AC50: 29.1 µM [falling, single point]

## CC(C)/C(=N\NS(=O)(=O)c1ccc(Br)cc1)c1cccs1
  cell number change: 14.7%
[2]
  AC50: 0.0366 µM [falling, single point]
[1]
  AC50: 0.0517 µM [falling, full curve, poor fit]

## Cc1ccc(NC(=O)c2cc(-c3cccs3)nc3ccccc23)nc1
  cell number change: 9.51%
[1]
  AC50: 1.64 µM [rising, partial curve, poor fit]

## CC1(c2ccc(OC(F)F)cc2)NC(=O)N(CC(=O)Nc2ccc(Cl)cc2F)C1=O (stereo not drawn)
  cell number change: 19.4%
[1]
  AC50: 0.58 µM [falling, single point]

## O=C(Cc1ccc(S(=O)(=O)N2CCOCC2)s1)NCCC(c1ccccc1)c1ccccc1
  cell number change: -21.2%
[2]
  AC50: 2.91 µM [rising, single point]
[1]
  AC50: 6.51 µM [rising, single point]

## O=C(NCc1n[nH]c(=S)n1-c1cccc(C(F)(F)F)c1)c1ccc(S(=O)(=O)N2CCCCC2)cc1
  cell number change: 23%
[1]
  AC50: 4.11 µM [falling, full curve]

## O=S(=O)(c1cccs1)N1CCC2(CC1)OCCO2
  cell number change: 20.9%
[1]
  AC50: 13 µM [rising, partial curve]

## COc1ccc(CC(=O)NC(C)c2ccc(S(N)(=O)=O)cc2)cc1S(=O)(=O)N1CCOCC1 (stereo not drawn)
  cell number change: 15.7%
[1]
  AC50: 0.116 µM [rising, full curve, poor fit]

## Cc1ccc2nc(NCc3ccccc3)[nH]c2c1
  cell number change: -4.09%
[1]
  AC50: 29.1 µM [rising, single point]

## O=C(O)CCC(=O)NNC(=O)c1cccc(Br)c1
  cell number change: -46.8%
[2]
  AC50: 16.4 µM [falling, single point]

## O=C(CCCC(=O)Nc1ccccc1Br)N/N=C/c1c(F)cccc1Cl
  cell number change: 35.5%
[2]
  AC50: 2.06 µM [rising, partial curve, poor fit]
[1]
  AC50: 6.51 µM [rising, single point]

## COc1ccc(-c2nonc2NC(=O)c2oc3ccccc3c2C)cc1OC
  cell number change: 25.4%

## COc1ccc2c(c1)CC[C@@H]1[C@@H]2CC[C@]2(C)[C@@H](C(C)=O)C[C@@H]12
  cell number change: -11.8%
[1]
  AC50: 6.51 µM [falling, single point]

## COc1ccccc1NCC(=O)NNC(C)C(=O)Nc1cccc(Cl)c1 (stereo not drawn)
[2]
  AC50: 0.116 µM [rising, full curve]
[1]
  AC50: 0.146 µM [rising, partial curve, poor fit]

## O=C(OCc1ccccn1)c1ccc(COc2ccc3ccccc3c2)o1
  cell number change: 7.1%
[1]
  AC50: 9.2 µM [rising, partial curve, poor fit]

## COc1ccc(-c2csc3ncnc(N4CCN(c5ccccc5Cl)CC4)c23)cc1
  cell number change: 75.1%
[2]
  AC50: 25.9 µM [rising, partial curve]
[1]
  AC50: 25.9 µM [rising, partial curve]

## O=[N+]([O-])c1ccc(N2CCC(O)CC2)nc1
  cell number change: -52.6%
[2]
  AC50: 29.1 µM [falling, single point]
[1]
  AC50: 29.1 µM [falling, single point]

## COc1ccc(NC(=O)CCCNC(=O)Cn2cnc3sc(C)c(C)c3c2=O)c(OC)c1
  cell number change: 22.2%

## O=C(NC1CCCCCC1)c1c2c(nc3ccccc13)CCN(Cc1ccccc1)C2
[1]
  AC50: 18.4 µM [rising, single point]

## Cc1nc(NC2CCCC2)sc1C(=O)N(C)C
  cell number change: 9.69%
[1]
  AC50: 1.46 µM [falling, partial curve]

## CN(C)S(=O)(=O)c1ccc(C(=O)OCC(=O)Nc2ccc3c(c2)OCO3)cc1
  cell number change: 16.5%

## Cn1c(=O)n(C)c2cc(NS(=O)(=O)c3ccc(C(C)(C)C)cc3)ccc21
  cell number change: -40.3%
[2]
  AC50: 13 µM [falling, partial curve, poor fit]

## Cc1cccc(C)c1NC(=O)C1CC(=O)N(C(C)C)C1 (stereo not drawn)
  cell number change: 12.7%
[1]
  AC50: 14.6 µM [rising, single point]

## Cn1cc(S(=O)(=O)N2CCN(C(=O)c3ccco3)CC2)c(=O)n(C)c1=O
  cell number change: -4.81%
[1]
  AC50: 6.51 µM [rising, single point]

## O=C(O)/C=C/C(=O)N1CCN(Cc2ccc3c(c2)OCO3)CC1
  cell number change: 37.8%
[2]
  AC50: 10.3 µM [rising, partial curve, poor fit]

## COc1cnc(-c2ccccn2)nc1Oc1ccc(F)cc1F
  cell number change: -4.82%
[2]
  AC50: 1.46 µM [rising, partial curve]
[1]
  AC50: 2.06 µM [rising, partial curve]

## CCC(=O)c1cc2c(cc1NC(=O)c1cccs1)OCCO2
  cell number change: -37.5%
[2]
  AC50: 1.03 µM [falling, full curve, poor fit]
[1]
  AC50: 0.82 µM [rising, full curve, poor fit]

## CC1CC(C)(C)CC2(C1)NC(=O)N(CC(=O)N(Cc1ccccc1)c1ccccc1)C2=O (stereo not drawn)
  cell number change: -22.3%
[1]
  AC50: 7.31 µM [falling, single point]

## CCCNC(=O)NC(=O)CSc1cccc(C(F)(F)F)c1
  cell number change: -36%

## CCN(CC)S(=O)(=O)c1ccc(Cl)c(NC(=O)COC(=O)/C=C/c2cc(OC)c(OC)c(OC)c2)c1
  cell number change: -33.3%
[2]
  AC50: 25.9 µM [falling, single point]
[1]
  AC50: 3.66 µM [rising, full curve]

## COc1ccc(NC(=O)C2CCCN(S(=O)(=O)c3cnc[nH]3)C2)cc1 (stereo not drawn)
  cell number change: -28.5%
[1]
  AC50: 5.8 µM [rising, full curve]

## Cc1occc1C(=O)N1CCN(C(=O)C2CCCO2)CC1 (stereo not drawn)
  cell number change: -2.05%
[1]
  AC50: 23.1 µM [falling, partial curve]

## CCNC(=O)N1CCOCC1
  cell number change: -19.1%
[1]
  AC50: 0.206 µM [falling, full curve, poor fit]

## COc1ccc(N2C(=O)[C@@H]3[C@H](C2=O)[C@H](C(C)=O)N2c4ccccc4C=C[C@@H]32)cc1
  cell number change: 9.5%
[2]
  AC50: 0.164 µM [rising, full curve, poor fit]

## Cc1ccccc1NC(=O)OCCN1CCN(Cc2ccccc2)CCC1=O
  cell number change: 23.6%

## CCCOP(=O)(OCCC)c1nc(-c2ccccc2)oc1NCc1ccccc1
  cell number change: 15.2%
[1]
  AC50: 1.84 µM [rising, full curve, poor fit]

## N#C/C=C(/c1ccc(F)cc1)N1CCOCC1
  cell number change: 52.6%
[2]
  AC50: 18.4 µM [rising, single point]
[1]
  AC50: 0.58 µM [rising, single point]

## O=C(Nc1ccc(Cl)c(Cl)c1)Nc1nnc(-c2ccncc2)s1
  cell number change: 97.8%
[2]
  AC50: 29.1 µM [rising, single point]
[1]
  AC50: 2.06 µM [rising, single point]

## CCn1c(N2CCN(S(=O)(=O)c3ccccc3C(F)(F)F)CC2)nc2ccccc21
  cell number change: -8.09%

## CCc1nc(Nc2ccccc2OC)c2oc3ccccc3c2n1
  cell number change: 60.4%
[2]
  AC50: 18.4 µM [rising, single point]
[1]
  AC50: 16.4 µM [rising, partial curve]

## S=C(NC1CCCCC1)N1CCc2ccccc2C1
  cell number change: -7.94%

## COc1ccc(CN2CCN(C(=O)c3ccc(CNS(=O)(=O)c4ccc(C)cc4)cc3)CC2)c(OC)c1OC
  cell number change: -29.8%
[1]
  AC50: 29.1 µM [rising, single point]

## O=C(NC1CCCCCCC1)c1ccc(F)cc1
  cell number change: -4.17%
[2]
  AC50: 0.58 µM [falling, single point]
[1]
  AC50: 0.651 µM [falling, single point]

## Cc1cc(C=C2C(=O)c3ccccc3C2=O)c(C)n1C
  cell number change: 25.1%

## CCOC(=O)C1=C(CC)OC(N)=C(C#N)C1c1ccc(OC)c(C)c1OC (stereo not drawn)
[1]
  AC50: 16.4 µM [rising, single point]

## Nc1nnc(CC(=O)N/N=C/c2cccc([N+](=O)[O-])c2)s1
  cell number change: -9.21%

## COc1ccc(C(=O)Nc2cccc(/C(C)=N\NC(=O)c3ccoc3C)c2)cc1OC
  cell number change: -26.5%
[1]
  AC50: 0.58 µM [rising, single point]
